# Reference: PMC10783636, “Chlorophyll biosynthesis under the control of arginine metabolism” (Cell Reports, 2023)
# T1: 3×FLAG-tagged ArgD (N-acetylornithine aminotransferase) of Synechocystis sp. PCC 6803 (Synechocystis sp. PCC 6803) (UniProt P73133)
# T1 sequence: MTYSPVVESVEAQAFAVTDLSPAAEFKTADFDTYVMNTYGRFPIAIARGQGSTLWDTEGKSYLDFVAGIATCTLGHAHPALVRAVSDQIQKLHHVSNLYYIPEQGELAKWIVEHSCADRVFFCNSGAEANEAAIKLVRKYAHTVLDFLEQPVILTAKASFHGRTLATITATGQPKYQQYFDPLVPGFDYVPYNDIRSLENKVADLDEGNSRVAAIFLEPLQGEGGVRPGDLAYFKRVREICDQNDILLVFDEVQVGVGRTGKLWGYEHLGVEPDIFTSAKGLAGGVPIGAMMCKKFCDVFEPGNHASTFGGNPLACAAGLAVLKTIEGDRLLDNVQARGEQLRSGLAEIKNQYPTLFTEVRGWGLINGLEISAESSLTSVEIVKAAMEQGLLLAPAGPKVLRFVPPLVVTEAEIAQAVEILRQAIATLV
# B1: cyanophycinase CphB of Synechocystis sp. PCC 6803 (native) (enzyme, UniProt P73832 1-271, looked up)
# chain: MPLSSQPAILIIGGAEDKVHGREILQTFWSRSGGNDAIIGIIPSASREPLLIGERYQTIFSDMGVKELKVLDIRDRAQGDDSGYRLFVEQCTGIFMTGGDQLRLCGLLADTPLMDRIRQRVHNGEISLAGTSAGAAVMGHHMIAGGSSGEWPNRALVDMAVGLGIVPEIVVDQHFHNRNRMARLLSAISTHPELLGLGIDEDTCAMFERDGSVKVIGQGTVSFVDARDMSYTNAALVGANAPLSLHNLRLNILVHGEVYHQVKQRAFPRVT
# notes: cyanophycinase CphB, Synechocystis sp; PCC 6803, gene slr2001; printed as 29.4 kDa; Migrated like a large oligomer (>200 kDa) on the BN gel; source: endogenous, Synechocystis soluble fraction
# B2: ChlH subunit of magnesium chelatase of Synechocystis sp. PCC 6803 (protein, UniProt P73020 1-1331)
# chain: MFTNVKSTIRRVDPEALNGRQLLKVVYVVLESQYQSALSAAVRNINRTNSSLAIQLTGYLIEELRDPENYANFKHDVSEANLFIASLIFIEDLADKVVEAVTPYRDNLDAAIVFPSMPQVMRLNKMGSFSMAQLGQSKSAIAQFMKKRKENSSGAGFQDAMLKLLRTLPTVLKYLPVEKAQDARNFMLSFQYWLGGSQENLENFLLMLTDKYVYPDLGLDKLVNYQEPVVYPDMGIWHPLSMQMFENVKDYLEWYNQRPDISEDLKDPLAPCIGLIMQRTHLVTGDDAHYVGMVQELEAMGARVICVFSGGLDFSKPVNEYFWDKSVNGVEPLPIVDAVVSLTGFALVGGPARQDHPRAIESLKKLNRPYMCALPLVFQTTEEWEASDLGLHPIQVALQIAIPELDGAIEPIILSGRDGSTGRAIALQDRLEAIAQRAMKWANLRKKPKLDKKVAITVFSFPPDKGNVGTAAYLDVFGSIYEVMKGLQGNGYDVQDLPGSAKELMEAVIHDAQAQYNSPELNIAHRMSVEQYERLTPYSVRLEENWGKPPGHLNSDGQNLLIYGKEFGNVFIGVQPTFGYEGDPMRLLFSRSASPHHGFAAYYTYLNHIWKADAVLHFGTHGSLEFMPGKQMGMSGECYPDNLIGTIPNLYYYAANNPSEATIAKRRGYASTISYLTPPAENAGLYKGLQELNELIGSYQTLKDSGRGIQIVNTIMDQARICNLDQDVNLPDINAEEMDQGQRDTIVGSVYRKLMEIESRLLPCGLHVIGQPPSAEEAIATLVNIASLDREDEGIWALPTLIAESIGRNMEEIYRNSDKGILADVELLQDITLATRAAVAALVQEQINADGRVSFVSKLNFFKIGKKAPWVKSLCDSGYPNVNEEKLKPLFEYLEFCLEQVCADNEFGGLLQALEGEYVLPGPGGDPIRNPNVLPTGKNIHALDPQSIPTLAAVQSAKVVVDRLLERQRAENGGNYPETIASVLWGTDNIKTYGESLAQIMWMVGAKPVPDALGRVNKIELVPLEELGRPRIDVVVNCSGVFRDLFINQMNLLDQAVKLAAEADEPLEMNFVRKHALEQAEEMGIGVREAATRIFSNASGSYSSNVNLAVENSSWEDESELQEMYLKRKSFAFNSDNPGMMDQNRDMFERALKTADATFQNLDSSEISLTDVSHYFDSDPTKLISTLRDDGKAPAAYIADTTTANAQVRTLSETVRLDARTKLLNPKWYEGMLSHGYEGVRELSKRLVNTMGWSATAGAVDNWVYEDANSTFIKDEEMCKRLMDLNPNSFRRMVSTLLEVNGRGYWETSDENLERLQELYQEVEDRIEGVE
# B3: 3×FLAG-tagged ArgD (N-acetylornithine aminotransferase) of Synechocystis sp. PCC 6803 (enzyme, UniProt P73133 1-429, looked up)
# chain: T1 sequence
# notes: N-acetylornithine aminotransferase ArgD, Synechocystis sp; PCC 6803, gene slr1022; synthetic argD gene with optimised codon usage cloned into pPD-NFLAG; f.ArgD printed as 49.8 kDa; also called f.ArgD; source: Synechocystis f.argD+/ΔargD or f.argD+/ΔcphB strain (psbAII promoter), soluble fraction; not shown: 3xFLAG, N-terminal, kept
# B4: Pyruvate kinase 1 of Synechocystis sp. PCC 6803 (enzyme, UniProt Q55863 1-483)
# chain: MPALINPVKFMRPLSHRTKIVATIGPASSSVEVIRQMVDAGMNVARLNFSHGSYEDHATMVRLLRSVEQEMDTPITLLQDLQGPKIRIGQLPGGEKQLREGEKVSLVPVEIGDRHPGAVGIDYPHLATEAKVGERILLDDGLLEMKVVSIQDPEVICEVVTGGILKSRKGVNLPGLVLTLPSMTTKDKQDLEFGLSQGIDWVSLSFVRKGEDIHTLKQFLAERGHPDLPVIAKIEKPQAIDNLEEIVAVSNGIMVARGDLGVEVNPEKVPRLQKEIIRRCNVRAIPVITATQMLDSMIQNSRPTRAEASDVANAILDGTDAVMLSGESAVGQYPVKSVQMLRKIAEETEVGLHLVNNPPIENTETHALSEALVVIDGILDLKYIVTFTTSGFTSLLASNQRPSVPVIAFTPSEKVYHSLNLVWGIIPFLINEEFDTFEDLIQQAEVLLRDRKMVEKGDQLLIMAGIPTKIPRGTNFLKIHRIS
# Target: T1, 3×FLAG-tagged ArgD (N-acetylornithine aminotransferase) of Synechocystis sp. PCC 6803 (Synechocystis sp. PCC 6803)
# Assay: affinity purification with mass spectrometry; FLAG-tagged bait (f.ArgD or f.Gun4) isolated from the soluble (cytosolic) fraction of Synechocystis on anti-FLAG M2 affinity gel in buffer A (20 mM HEPES pH 7.4, 5 mM CaCl2, 10 mM MgCl2, 25% glycerol), eluted with 3xFLAG peptide; eluate separated by 2D BN/SDS-PAGE or SDS-PAGE, stained spots or bands identified by MS; WT control
row,binding,Molecule
1,binds,B1
2,no binding,B2

# Target: 3×FLAG-tagged Gun4 of Synechocystis sp. PCC 6803 (Synechocystis sp. PCC 6803)
# Assay: as above
row,binding,Molecule
1,binds,B3
2,binds,B1
3,binds,B4
4,no binding,B2

# Target: T1, 3×FLAG-tagged ArgD (N-acetylornithine aminotransferase) of Synechocystis sp. PCC 6803 (Synechocystis sp. PCC 6803)
# Assay: as above
# Remark: another data set of the same source
row,binding,Molecule
1,no binding,Tryptophanyl t-RNA synthetase of Synechocystis sp. PCC 6803 (enzyme)
2,no binding,"fructose-1,6-biphosphatase of Synechocystis sp. PCC 6803 (enzyme)"
3,binds,Gun4 protein of Synechocystis sp. PCC 6803 (native)

# No constants are given. Whether binding was seen depends on the method and setting. In cells and extracts the contact can be indirect. These calls come from enrichment with a bait or labelling near it, and not all partners need be listed. No binding means not detected with the bait. For part of these data: Tags and fused reporters may be left off the sequences shown.
